pIC50: −log10 of the molar value. Some entries share one result that the patent states for a list of compounds. For at least one compound, name, drawing or mass did not settle the structure.
Biological target: T1, CSBP/p38 (Homo sapiens, UniProt Q16539)
T1 construct: made in house; host or cells: yeast
Assay: CSBP Kinase Assay (transfer of 32P from ATP to EGFR-derived peptide T669)
Assay type: biochemical
Settings: called "this binding assay", read-out: positive inhibitory activity, IC50
Protocol: This assay measures the CSBP-catalyzed transfer of ^32P from [a-^32P]ATP to threonine residue in an epidermal growth factor receptor (EGFR)-derived peptide (T669) with the following sequence: […] (residues 661-681). (See Gallagher et al., “Regulation of Stress Induced Cytokine Production by Pyridinyl Imidazoles: Inhibition of CSPB Kinase”, BioOrganic & Medicinal Chemistry, 1997, 5, 49-64).
Reactions were carried in round bottom 96 well plate (from Corning) in a […]. Reactions contained (in final concentration): 25 mM Hepes, pH7.5; 10 mM MgCl2; 0.17 mM ATP (the Km[ATP] of p38 (see Lee et al., Nature […], n72 pg. 639-746 (December 1994) and Young et al., J. Biol. Chem. 272, n18 pg. 12116-12121 (May 1997)); 2.5 uCi of [g-32P]ATP; 0.2 mM sodium orthovanadate; 1 mM DTT; 0.1% BSA; 10% glycerol; 0.67 mM T669 peptide; and 2-4 nM of yeast-expressed, activated and purified p38. Reactions were initiated by the addition of [gamma-32P]Mg/ATP, and incubated for 25 min at 37 C. Inhibitors (dissolved in DMSO) were incubated with the reaction mixture on ice for 30 minutes prior to adding the 32P-ATP. Final DMSO concentration was 0.16%. […] Filters were washed with 75 mM phosphoric acids, and incorporated 32P was quantified using beta scintillation counter. […]

Protein sequences, listed by entry. Tags and fused reporters are not part of them.
UniProt Q16539, whole entry: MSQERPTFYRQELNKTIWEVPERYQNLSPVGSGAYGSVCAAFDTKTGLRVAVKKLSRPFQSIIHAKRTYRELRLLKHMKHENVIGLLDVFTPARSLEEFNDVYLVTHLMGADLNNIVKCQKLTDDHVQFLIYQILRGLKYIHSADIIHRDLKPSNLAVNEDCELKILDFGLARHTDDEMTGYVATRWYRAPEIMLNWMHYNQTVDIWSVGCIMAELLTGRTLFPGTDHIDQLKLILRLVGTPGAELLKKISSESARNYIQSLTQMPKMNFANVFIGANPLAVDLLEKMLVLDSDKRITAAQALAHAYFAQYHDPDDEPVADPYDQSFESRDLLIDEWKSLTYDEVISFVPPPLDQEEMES

c1ccc2cc(-c3nccnc3-c3ccncc3)ccc2c1 [Example 4, 2-Napthyl-2-yl-3-(4-pyridyl)pyrazine]
pIC50: > 4.30
